Measured values as given in patent EP4389150A1 (Technische Universität München, priority 2022, dated 2024).

Assay: general procedure: Fmoc solid-phase peptide synthesis; 2-CTC resin (0.97 mmol/g)
Settings: conjugation step

Substance: DOTAGA-n-Lys(Ruc-Sub)-n-Asp-β-Ala-TXA-L-Nal-KuE
- conjugation yield: 24%
